Reference: the supplement of paper PMC5949888
Most values lie at the floor of the assay. Slopes are relative: functional sequences can read slightly below zero.

System: Saccharomyces cerevisiae PS128 hsf1 delta, HSF1(1-493) fusion
Test: growth estimate (transactivation domain function in HSF1 fusion, heat-shock survival) (a.u. (slope of normalised read count over time)); higher = stronger growth at 37°C, i.e. more transactivation activity
Conditions: library: random library

Row | Substance | growth estimate
1 | IPGGMGSRRKTVGWGLQLLQ | < -0.25
2 | IPGHPGQNVK | < -0.25
3 | IPGVLNR | < -0.25
4 | IPHRHFSGRKLLTQHYLGPS | < -0.25
5 | IPIK | < -0.25
6 | IPKK | -0.246
7 | IPKTIRSGNVKVPHAPEHYL | < -0.25
8 | IPL | < -0.25
9 | IPLGLDVMVYGLWQ | < -0.25
10 | IPLQMAVLLVSHAPLSDCVV | < -0.25
11 | IPLRGP | < -0.25
12 | IPMDSGRRTRYSW | < -0.25
13 | IPMKQGLEASGGVPKAAAS | < -0.25
14 | IPNKALITTTKK | < -0.25
15 | IPPCSVSFHGMGPLL | < -0.25
16 | IPPFPSTSVGIWGACLHSIW | < -0.25
17 | IPPKVLTSMIAKEDRCPSAG | < -0.25
18 | IPPRFPHMRGPF | < -0.25
19 | IPPVLP | < -0.25
20 | IPQRRAGANRKERDYIRVVL | < -0.25
21 | IPRRWECRSPRELCRMVVGR | < -0.25
22 | IPRVRGV | < -0.25
23 | IPSASISKAGLTRCKRRMTA | < -0.25
24 | IPSSYVSVSMFGE | < -0.25
25 | IPSY | < -0.25
26 | IPTSSGVPADTSFKGRAFSL | < -0.25

Row | Substance | growth estimate
27 | IPTTEGLSTNMFLIFGDHVN | < -0.25
28 | IPVARFSRCSIGEVYGPIWK | < -0.25
29 | IPVLRLARKRL | < -0.25
30 | IPVRVRPGLVSNNPNTPVHA | < -0.25
31 | IPVVWPGCRSCKCVGLARIR | < -0.25
32 | IPW | -0.245
33 | IQDRLSGADCLLSRSGQYMF | < -0.25
34 | IQERSHPVISGMGDLHDLAA | < -0.25
35 | IQGFEQCVWSHVYSSSI | < -0.25
36 | IQIPPELSGCDQCLPVALTR | < -0.25
37 | IQKAGDTFSRVKGGWMVRPT | < -0.25
38 | IQLAIVNDRQPQKFTTWVLA | < -0.25
39 | IQLHHTTYNWGVPLRGLYKQ | < -0.25
40 | IQN | < -0.25
41 | IQNASITLLLY | < -0.25
42 | IQPDGV | < -0.25
43 | IQRFWIKPSAMEGAGSICTV | < -0.25
44 | IQRR | < -0.25
45 | IQRYLGSAVTI | < -0.25
46 | IQSLGGSVRQPGSY | < -0.25
47 | IQSLS | < -0.25
48 | IQSNLFRGRPVVFWVAFTGE | < -0.25
49 | IQTLCSRRLYTADS | < -0.25
50 | IQVSWDVYRGAEEV | < -0.25
51 | IRAADRFTCTTLTGRGGTPP | < -0.25
52 | IRATGGLVCSSGVTPDMLST | < -0.25

Row | Substance | growth estimate
53 | IRAVFPAWHVVGE | < -0.25
54 | IRCWCISIEMRKF | < -0.25
55 | IRDGHARQHEWSRFR | < -0.25
56 | IREAS | < -0.25
57 | IREGGPGEVTEAVVVRVVGE | < -0.25
58 | IRER | < -0.25
59 | IRERSLCELRAAYGASRVIV | < -0.25
60 | IRFGILPTSDSPVRSTNDQD | 0.0413
61 | IRFGSYPRKRYWWCPDIMVG | -0.245
62 | IRGMGAGGIRSAVHGT | < -0.25
63 | IRGVNSASAYIYMNQGFTDI | < -0.25
64 | IRLFRIECSHGARQGPRPLV | < -0.25
65 | IRLGGDGRSSEYGHRKTARS | < -0.25
66 | IRLGRGFRKVYWHARPIHRK | < -0.25
67 | IRLGTPCEVCSVERGSQICP | < -0.25
68 | IRLLGP | < -0.25
69 | IRLRGLGL | < -0.25
70 | IRMFR | < -0.25
71 | IRNTGSAKCVEEAYANLAQR | -0.245
72 | IRRIRVVTAEHGTTFSA | < -0.25
73 | IRRQED | < -0.25
74 | IRRTRVPSVTPTGVHRTWPR | < -0.25
75 | IRTQRRGPHLKSTSL | < -0.25
76 | IRTRKFTRGSPSPLVWRPAT | < -0.25
77 | IRTTTD | < -0.25
78 | IRVGW | < -0.25

Row | Substance | growth estimate
79 | IRVLGENGRSLFDDRPLRPY | < -0.25
80 | IRVNLVYSSSTVNVCHRSTS | < -0.25
81 | IRVSICPVNR | < -0.25
82 | IRWGCLSFVIGSS | < -0.25
83 | IRWSCALDCAFPGRSTQVSN | -0.145
84 | IRWTIGGTNRANSRGCAQLL | < -0.25
85 | IRYLDSGRAVALKAAWAWVR | < -0.25
86 | ISATVVRKRAGGLAQYYNLP | -0.243
87 | ISAYDRDGR | < -0.25
88 | ISCVSQSNA | < -0.25
89 | ISDIGAGIAVLHVGYRHVGK | < -0.25
90 | ISDSMPPCGQLWTSLIHRRG | < -0.25
91 | ISEKTKRSELMAVTNERQVE | < -0.25
92 | ISFRGSTCQSWLGIANRPVR | < -0.25
93 | ISFYIQNKSGPV | < -0.25
94 | ISGGGS | < -0.25
95 | ISGGGVSLLFLNQDR | < -0.25
96 | ISGRKLVDGCPHSRWLGRDG | < -0.25
97 | ISGSYSKKLG | -0.1
98 | ISHFPCQ | < -0.25
99 | ISHLVW | < -0.25
100 | ISIEAGARDDCPLCEWAGTE | 32.4
101 | ISIGLSATRRG | < -0.25
102 | ISKI | < -0.25
103 | ISKLAGLVATVCGYVLQLPV | < -0.25
104 | ISLLARSTLSKRKSICGRLC | < -0.25

Row | Substance | growth estimate
105 | ISLTFVGRSFIYNFCAVRPW | < -0.25
106 | ISLVA | < -0.25
107 | ISMV | < -0.25
108 | ISMVV | < -0.25
109 | ISNLP | -0.173
110 | ISPHVDGTSTKLPTDCTRAQ | -0.246
111 | ISPRHGDTATLNCPGDG | < -0.25
112 | ISQTISGSVL | < -0.25
113 | ISR | < -0.25
114 | ISRAATRVQRTCPNCLTTIA | -0.246
115 | ISRRVSVIMSHRTGRFDACP | < -0.25
116 | ISRRW | < -0.25
117 | ISS | -0.246
118 | ISSFQTTDRHDQGSVGI | < -0.25
119 | ISSQN | < -0.25
120 | ISSRGGEP | < -0.25
121 | ISTIRLADLPLDGM | -0.177
122 | ISTRWRSWIVDRSVRSEFLC | < -0.25
123 | ISVIVEVGVTG | < -0.25
124 | ISVTPASRKKSSSASNGSFS | < -0.25
125 | ISVV | < -0.25
126 | ISW | < -0.25
127 | ISWL | < -0.25
128 | ISYCHLSRTVSFERLPTVKW | < -0.25
129 | ISYCSQAETGSAVSMPLSRG | < -0.25
130 | ISYFR | < -0.25

Row | Substance | growth estimate
131 | ITCWSSATHPYLLAMHRQFA | < -0.25
132 | ITDTVLRRHKIHEHVRLVPR | < -0.25
133 | ITESIAAYVDRAWSQLCAPP | < -0.25
134 | ITGDYLPVPSVCVSGLIGSG | < -0.25
135 | ITGSRQSSSSSLK | < -0.25
136 | ITGTLPRAMSY | < -0.25
137 | ITHMANLSFVLIPRMSRRSG | < -0.25
138 | ITHP | < -0.25
139 | ITINAIHLMPPVISVSTVE | < -0.25
140 | ITIRVSLCRWL | < -0.25
141 | ITKTLQGITERIRVRTHWGL | < -0.25
142 | ITL | < -0.25
143 | ITLCIDLTKGRLRALEACAE | < -0.25
144 | ITLDLG | < -0.25
145 | ITLLGSVMRGTLIGLRFLIY | < -0.25
146 | ITLVIVKLGCLERRISIGRT | < -0.25
147 | ITPRDLRGLRGSTSLRNVTF | -0.243
148 | ITPRLTTRVTWLGYGHSRRV | < -0.25
149 | ITPSLRGRGASL | < -0.25
150 | ITREAWDGNRREVLKSSPTC | < -0.25
151 | ITRVLGICGSMRRAHTVYIE | < -0.25
152 | ITSDLSGSYGDKLIA | -0.201
153 | ITSGAKSGFAGLAYSYSSKP | < -0.25
154 | ITSRSEDIRETSALVQSDGV | < -0.25
155 | ITTGR | < -0.25
156 | ITVGL | < -0.25

Part of the list above in another layout:
IPPKVLTSMIAKEDRCPSAG
  growth estimate: < -0.25
IPPRFPHMRGPF
  growth estimate: < -0.25
IPPVLP
  growth estimate: < -0.25
IPQRRAGANRKERDYIRVVL
  growth estimate: < -0.25

Next entries follow.

Row | Substance | growth estimate
157 | ITVSTVS | < -0.25
158 | IVEGYCGYPLHIITIVFSLT | < -0.25
159 | IVETTYSLVCVFERLANSSI | < -0.25
160 | IVFTWGFQVCLEARGQTDTD | < -0.25
161 | IVFYRGVHRR | < -0.25
162 | IVGFEPRRLSGDLMWDRSAQ | < -0.25
163 | IVGPYLGRINGCCVMATRYS | < -0.25
164 | IVIS | < -0.25
165 | IVITCAAGGTRRRVYEVLEE | < -0.25
166 | IVKRNKTATRGLQDGPVGMW | < -0.25
167 | IVKTQAFMCERLAV | < -0.25
168 | IVLLSACGFIPCGPVPRVEL | < -0.25
169 | IVLPVGYTDIFEC | 5.18
170 | IVLWPRGISRTCR | -0.248
171 | IVMGDNPAGVLCGTGPHHSS | -0.231
172 | IVMQCLRLKCGIGIVHKGFS | < -0.25
173 | IVNKRN | < -0.25
174 | IVPFGISPVLVDR | < -0.25
175 | IVPVYSYTAFSSGSTERRCE | -0.234
176 | IVQGLSMETHT | < -0.25
177 | IVRRTIVSE | < -0.25
178 | IVRVFHNDLSDYWAHDWRVP | -0.0659
179 | IVS | < -0.25
180 | IVSSLQ | < -0.25
181 | IVSTCYGY | < -0.25
182 | IVVANR | < -0.25

Row | Substance | growth estimate
183 | IVVYTFN | -0.246
184 | IVYFGHMDGLAP | < -0.25
185 | IVYGGSVPGNCSALRVPSAA | < -0.25
186 | IWALCRQNISSHNCTL | < -0.25
187 | IWD | < -0.25
188 | IWEGSLSSW | < -0.25
189 | IWGRPCNWTAAYAIEHSGQR | < -0.25
190 | IWHDVKSKGK | < -0.25
191 | IWLAR | < -0.25
192 | IWLPT | < -0.25
193 | IWMRPEFVLSMWMRNIEVRA | < -0.25
194 | IWPPSSGGLTGCEFSSPFNL | < -0.25
195 | IWRLVGIVKPSLLHVRSRCP | < -0.25
196 | IWSKNSIVVSVSSKGLSLGR | < -0.25
197 | IWSTINPVERYETESVEEA | < -0.25
198 | IWTAFRGGS | < -0.25
199 | IWTHNGLLQLVL | < -0.25
200 | IWTRTPSL | < -0.25
201 | IWVSLPFSAPFLVQSGGGRG | < -0.25
202 | IYCH | < -0.25

Taken from the results shown (three entries):
Row | Substance | growth estimate
184 | IVYFGHMDGLAP | < -0.25
185 | IVYGGSVPGNCSALRVPSAA | < -0.25
186 | IWALCRQNISSHNCTL | < -0.25
